The source of these data is article PMC4303145.

Protein sequences, listed by entry. Tags and fused reporters are not part of them.
UniProt Q8TED9: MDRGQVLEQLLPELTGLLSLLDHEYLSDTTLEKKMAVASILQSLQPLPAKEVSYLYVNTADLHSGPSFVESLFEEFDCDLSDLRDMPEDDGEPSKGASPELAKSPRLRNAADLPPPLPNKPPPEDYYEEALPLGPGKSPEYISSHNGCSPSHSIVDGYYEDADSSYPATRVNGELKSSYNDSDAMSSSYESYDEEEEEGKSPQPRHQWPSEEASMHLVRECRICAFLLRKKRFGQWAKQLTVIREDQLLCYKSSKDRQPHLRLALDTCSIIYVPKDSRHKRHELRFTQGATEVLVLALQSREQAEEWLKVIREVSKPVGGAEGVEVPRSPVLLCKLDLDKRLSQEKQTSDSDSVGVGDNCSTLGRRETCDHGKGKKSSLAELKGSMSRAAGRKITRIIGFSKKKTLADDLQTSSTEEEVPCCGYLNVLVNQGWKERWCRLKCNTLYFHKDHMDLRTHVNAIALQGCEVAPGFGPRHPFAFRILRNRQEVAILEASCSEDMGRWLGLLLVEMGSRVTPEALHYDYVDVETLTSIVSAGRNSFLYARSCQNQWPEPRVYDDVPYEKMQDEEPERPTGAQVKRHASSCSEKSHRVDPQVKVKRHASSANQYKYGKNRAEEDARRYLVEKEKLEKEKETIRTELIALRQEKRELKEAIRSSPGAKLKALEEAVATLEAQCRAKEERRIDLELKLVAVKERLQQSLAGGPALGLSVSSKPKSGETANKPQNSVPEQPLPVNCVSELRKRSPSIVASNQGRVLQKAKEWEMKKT

Test [1] concerns the target endogenous AFAP1L1 (human (endogenous in LoVo)) (UniProt Q8TED9). The test can be described thus: co-IP; LoVo whole cell lysates, endogenous proteins; immunoprecipitated with the anti-AFAP1L1 Ab, immunoblotted with Abs against vinculin or other invadopodia or focal adhesion proteins. On the technique in general: In western blotting, separated proteins are transferred to a membrane and probed.

The target of test [2] is endogenous AFAP1L1 (human (endogenous in LoVo)), Q8TED9. The test is described as above. To be noted: remark: other sources report otherwise.

No constants are given. Whether binding was seen depends on the method and setting. Binding seen in cells or lysates may run through a third protein.

B1: endogenous p130Cas (protein, UniProt P56945 1-870)
chain: MNHLNVLAKALYDNVAESPDELSFRKGDIMTVLEQDTQGLDGWWLCSLHGRQGIVPGNRLKILVGMYDKKPAGPGPGPPATPAQPQPGLHAPAPPASQYTPMLPNTYQPQPDSVYLVPTPSKAQQGLYQVPGPSPQFQSPPAKQTSTFSKQTPHHPFPSPATDLYQVPPGPGGPAQDIYQVPPSAGMGHDIYQVPPSMDTRSWEGTKPPAKVVVPTRVGQGYVYEAAQPEQDEYDIPRHLLAPGPQDIYDVPPVRGLLPSQYGQEVYDTPPMAVKGPNGRDPLLEVYDVPPSVEKGLPPSNHHAVYDVPPSVSKDVPDGPLLREETYDVPPAFAKAKPFDPARTPLVLAAPPPDSPPAEDVYDVPPPAPDLYDVPPGLRRPGPGTLYDVPRERVLPPEVADGGVVDSGVYAVPPPAEREAPAEGKRLSASSTGSTRSSQSASSLEVAGPGREPLELEVAVEALARLQQGVSATVAHLLDLAGSAGATGSWRSPSEPQEPLVQDLQAAVAAVQSAVHELLEFARSAVGNAAHTSDRALHAKLSRQLQKMEDVHQTLVAHGQALDAGRGGSGATLEDLDRLVACSRAVPEDAKQLASFLHGNASLLFRRTKATAPGPEGGGTLHPNPTDKTSSIQSRPLPSPPKFTSQDSPDGQYENSEGGWMEDYDYVHLQGKEEFEKTQKELLEKGSITRQGKSQLELQQLKQFERLEQEVSRPIDHDLANWTPAQPLAPGRTGGLGPSDRQLLLFYLEQCEANLTTLTNAVDAFFTAVATNQPPKIFVAHSKFVILSAHKLVFIGDTLSRQAKAADVRSQVTHYSNLLCDLLRGIVATTKAAALQYPSPSAAQDMVERVKELGHSTQQFRRVLGQLAAA
Consider B1, for which the binding result in test [1] was “no binding”.

B2: endogenous cortactin, Q14247 1-550 (protein)
chain: MWKASAGHAVSIAQDDAGADDWETDPDFVNDVSEKEQRWGAKTVQGSGHQEHINIHKLRENVFQEHQTLKEKELETGPKASHGYGGKFGVEQDRMDKSAVGHEYQSKLSKHCSQVDSVRGFGGKFGVQMDRVDQSAVGFEYQGKTEKHASQKDYSSGFGGKYGVQADRVDKSAVGFDYQGKTEKHESQRDYSKGFGGKYGIDKDKVDKSAVGFEYQGKTEKHESQKDYVKGFGGKFGVQTDRQDKCALGWDHQEKLQLHESQKDYKTGFGGKFGVQSERQDSAAVGFDYKEKLAKHESQQDYSKGFGGKYGVQKDRMDKNASTFEDVTQVSSAYQKTVPVEAVTSKTSNIRANFENLAKEKEQEDRRKAEAERAQRMAKERQEQEEARRKLEEQARAKTQTPPVSPAPQPTEERLPSSPVYEDAASFKAELSYRGPVSGTEPEPVYSMEAADYREASSQQGLAYATEAVYESAEAPGHYPAEDSTYDEYENDLGITAVALYDYQAAGDDEISFDPDDIITNIEMIDDGWWRGVCKGRYGLFPANYVELRQ
For the molecule B2, in test [2], the binding result is recorded as “no binding”.

B3: endogenous Tks5 (protein, UniProt Q5TCZ1 1-1133)
chain: MLAYCVQDATVVDVEKRRNPSKHYVYIINVTWSDSTSQTIYRRYSKFFDLQMQLLDKFPIEGGQKDPKQRIIPFLPGKILFRRSHIRDVAVKRLKPIDEYCRALVRLPPHISQCDEVFRFFEARPEDVNPPKEDYGSSKRKSVWLSSWAESPKKDVTGADATAEPMILEQYVVVSNYKKQENSELSLQAGEVVDVIEKNESGWWFVSTSEEQGWVPATYLEAQNGTRDDSDINTSKTGEVSKRRKAHLRRLDRRWTLGGMVNRQHSREEKYVTVQPYTSQSKDEIGFEKGVTVEVIRKNLEGWWYIRYLGKEGWAPASYLKKAKDDLPTRKKNLAGPVEIIGNIMEISNLLNKKASGDKETPPAEGEGHEAPIAKKEISLPILCNASNGSAVGVPDRTVSRLAQGSPAVARIAPQRAQISSPNLRTRPPPRRESSLGFQLPKPPEPPSVEVEYYTIAEFQSCISDGISFRGGQKAEVIDKNSGGWWYVQIGEKEGWAPASYIDKRKKPNLSRRTSTLTRPKVPPPAPPSKPKEAEEGPTGASESQDSPRKLKYEEPEYDIPAFGFDSEPELSEEPVEDRASGERRPAQPHRPSPASSLQRARFKVGESSEDVALEEETIYENEGFRPYAEDTLSARGSSGDSDSPGSSSLSLTRKNSPKSGSPKSSSLLKLKAEKNAQAEMGKNHSSASFSSSITINTTCCSSSSSSSSSLSKTSGDLKPRSASDAGIRGTPKVRAKKDADANAGLTSCPRAKPSVRPKPFLNRAESQSQEKMDISTLRRQLRPTGQLRGGLKGSKSEDSELPPQTASEAPSEGSRRSSSDLITLPATTPPCPTKKEWEGPATSYMTCSAYQKVQDSEISFPAGVEVQVLEKQESGWWYVRFGELEGWAPSHYLVLDENEQPDPSGKELDTVPAKGRQNEGKSDSLEKIERRVQALNTVNQSKKATPPIPSKPPGGFGKTSGTPAVKMRNGVRQVAVRPQSVFVSPPPKDNNLSCALRRNESLTATDGLRGVRRNSSFSTARSAAAEAKGRLAERAASQGSDSPLLPAQRNSIPVSPVRPKPIEKSQFIHNNLKDVYVSIADYEGDEETAGFQEGVSMEVLERNPNGWWYCQILDGVKPFKGWVPSNYLEKKN
For B3, in test [1], the binding result is reported as “no binding”.
